Source: PMC8170675, “Allostery through DNA drives phenotype switching”
For at least one entry, the source does not settle the construct or the ends of the probe. At least one verdict was read from the data and is not stated in words by the source. Where a protein sequence is shown, tags need not be part of it.

Biological target: T1, ComK (Bacillus subtilis) (UniProt P40396)
T1 sequence: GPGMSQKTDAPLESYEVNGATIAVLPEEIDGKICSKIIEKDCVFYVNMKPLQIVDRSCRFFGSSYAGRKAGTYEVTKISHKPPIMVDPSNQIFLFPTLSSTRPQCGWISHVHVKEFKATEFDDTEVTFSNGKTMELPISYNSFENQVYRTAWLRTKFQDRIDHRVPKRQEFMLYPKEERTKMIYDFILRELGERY
Assay: smFRET
Conditions: amino-C6-dT/dA at dye sites, smFRET: room temperature, 50 mM L-Arg, 20 mM DTT, recombinant protein, label: AlexaFluor 488 / AlexaFluor 594

## GATGTGCGGAGAAAAGGCCGTTTTTATATGTGAAAAGGCCGTTTTTACCAATAGATC (double strand) [addAB 2 boxes]
Hill exponent in figure only
  binding result: binds

## GATGTGCGGAGAAAAGGCCGTTTTTATATGTGAAAAGGCCGTTTTTATATGTGAAAAGGCCGTTTTTACCAATAGATC (double strand) [addAB 3 boxes]
Hill exponent in figure only
  binding result: binds

## GATGTGCGGAGAAAAGGCCGTTTTTATATGTGAAAAGGCCGTTTTTATATGTGAAAAGGCCGTTTTTATATGTGAAAAGGCCGTTTTTACCAATAGATC (double strand) [addAB 4 boxes]
Hill exponent in figure only
  binding result: binds

## GATGTGCGGAGATAATCAGCTTTTTATATGTGAAAAGGCCGTTTTTACCAATAGATC (double strand) [addAB2: box 2 labelled]
Value cut off in the material
  binding result: binds
